From patent US20190308987A1, “DUAL MODULATORS OF BOTH MU AND KAPPA OPIOID RECEPTORS” (priority 2016, published 2019)

Experiments:
[1] = tested on: mouse distal colon circular muscle; experiment: Colon circular muscle isometric tension recordings, distal colon; conditions: naive tissue, read-out: pD2 for morphine induced contractions (converted)
Description: (§1) Mice were euthanized by cervical dislocation. The colon was dissected, flushed of its contents, and trimmed of mesentery. […] The tissues, 0.5 cm in length, were suspended vertically along the axis of the circular muscle with a metal triangle tied to a hook under 1 g of passive tension in 15 mL siliconized organ baths.
(§2) Data are presented as the mean±S.E.M, values of P≤0.05 were considered significant.

[2] = tested on: mouse proximal colon circular muscle; experiment: Colon circular muscle isometric tension recordings, proximal colon; conditions: naive tissue, read-out: pD2 for morphine induced contractions (converted)
Description: as §1, §2

CN1CC[C@]23c4c5ccc(O)c4O[C@H]2[C@@H](O)C=C[C@H]3[C@H]1C5 [morphine, reference compound]
EC50 [1]: 1 µM | EC50 [2]: 0.158 µM
